17 molecules from PubChem BioAssay AID2685 (National Center for Advancing Translational Sciences (NCATS), 2010) can be followed below.

This is one part of the list. The main result of the screen is listed elsewhere. These columns were measured beside it and carry no call. Most of these compounds were active or inconclusive in the main read-out, so they are no random draw. The note in brackets gives the kind of curve behind each potency; many fits are weak.

This test can be described thus: qHTS Assay for Lipid Storage Modulators in Drosophila S3 Cells.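 For cell number change: cells counted by Cell Tracker Red CMTPX staining in the red channel.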 To be noted: BODIPY lipid droplet fluorescence, 18-24 h; for cell number change: measured here: cell count max response, cells fed with added oleic acid. Put shortly: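 Drosophila S3 cells got compounds at several concentrations plus oleic acid (400 uM solution). Laser-scanning cytometry with 488 nm excitation read lipid droplets at 500-530 nm and cells at 575-640 nm. Percent activity was relative to 20 uM Triacsin C.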

Where [1] appears, read: measured here: cell number channel AC50, cells fed with added oleic acid.
Where [2] appears, read: measured here: lipid fluorescence (Fed channel) AC50, cells fed with added oleic acid.

As a reminder, the AC50 is the concentration at which the activity in the assay is half-maximal. A low value points to activity at low concentration.

`CC(=O)c1ccc(Oc2cc(C)nc(N3CCOCC3)n2)cc1`: the cell number change is -16.7%. Further, the AC50 under setting [1] was 0.651 µM [falling, full curve, poor fit]. Besides, the AC50 under setting [2] is 23.1 µM [rising, single point]. Consider `CN(CC(=O)NC1CCCCCC1)S(=O)(=O)c1ccc(Br)cc1`, for which the cell number change amounted to 15.1%. For the same molecule, the AC50 under setting [2] was 5.8 µM [rising, partial curve].

For `CC(=O)Nc1ccc(S(=O)(=O)NCc2cccnc2)cc1`, the cell number change was -17.1%. Further, the AC50 under setting [1] is 0.651 µM [falling, full curve, poor fit]. In addition, under setting [2], the AC50 is 0.411 µM [falling, full curve]. For `CS(=O)(=O)N(CC(=O)N1CCOCC1)c1ccc2c3c(cccc13)CC2`, the cell number change is -24.5%. Further, under setting [2], the AC50 is 29.1 µM [falling, single point]. Take `Cc1ccc(C(C)NC(=O)c2ccncc2)c(C)c1` (stereo not drawn): the cell number change is -37.8%. For the same molecule, the AC50 under setting [2] is 29.1 µM [falling, single point]. Take `COc1cccc(CNC(=O)CN2C(=O)CSc3ccc(S(=O)(=O)N4CCCC4)cc32)c1`: the cell number change was -10.5%. Besides, the AC50 under setting [2] was 0.651 µM [falling, single point]. `CCN1CCc2c(C#N)c(NCc3ccccc3)nc(N(CC)CC)c2C1`: the cell number change was -33.2%. In addition, the AC50 under setting [1] was 29.1 µM [falling, single point]. Further, under setting [2], the AC50 is 20.6 µM [falling, single point]. Consider `CC/C(=N\NC(=O)OC)c1ccc(OC(F)F)cc1`, for which the half-maximal activity concentration (AC50) under setting [1] was 0.0731 µM [rising, partial curve, poor fit].

For the molecule `COc1ccc(C2C(=O)N(C3CCCCC3)CC(=O)N2C2CCCCC2)cc1` (stereo not drawn), the AC50 under setting [1] is 0.58 µM [falling, full curve]. Regarding `O=C(Nc1cccc(NC(=O)c2sc3ccccc3c2Cl)c1)c1ccco1`, the cell number change was -6.77%.

`CCc1ccc(OC)c(S(=O)(=O)N2CCN(C(=O)c3ccco3)CC2)c1`: the cell number change is -11.9%. On to `O=C(Nc1ccc(F)cc1)c1nc[nH]c1C(=O)Nc1ccc([N+](=O)[O-])cc1`, for which the cell number change was 1.65%. The AC50 under setting [2] was 1.64 µM [falling, partial curve]. Turning to `CCCCNC(=O)c1ccc(CNS(=O)(=O)c2ccc(Br)cc2)cc1`, the cell number change amounted to 50.6%. For the molecule `O=C(OCC(=O)N1CCCC1=O)c1cc(S(=O)(=O)N2CCOCC2)ccc1F`, the cell number change was -26.2%. Also, the AC50 under setting [2] is 29.1 µM [falling, single point].

Consider `Cn1c(SCC(=O)c2ccccc2)nnc1-c1ccncc1`, for which the cell number change is -13%. Moreover, the AC50 under setting [2] is 29.1 µM [rising, single point]. In the case of `COc1ccc(NS(=O)(=O)/C=C/c2ccc(OC)c(OC)c2)cc1`, the cell number change stood at 31.9%. For the same molecule, the half-maximal activity concentration (AC50) under setting [1] was 29.1 µM [rising, single point]. The half-maximal activity concentration (AC50) under setting [2] was 29.1 µM [rising, single point].

As for `COC(=O)[C@H](Cc1ccccc1)NC(=O)N(C)Cc1ccccc1`, the cell number change is -31.2%. Under setting [2], the AC50 is 0.731 µM [falling, full curve, poor fit].
